The source of these data is the supplement of paper PMC3682954.

In general, cell viability refers to a read-out of living cells in per cent, often relative to untreated cells.

Several values for one entry are separate records, joined by “and”; a condition that tells them apart may be missing. Identical values can stand only once. Counter-ions that a name gives are not always drawn. ± gives the standard deviation of the averaged measurements. The list shows a part of the results. Repeats are few or missing, and single values can be far off.

The experiment relates to RAW 264.7. Nature of the experiment: cell viability (MTT) relative to vehicle control; higher = more viable cells. Particulars: stimulus: HMGB1 5 ug/ml, 18 h.
[1] abbreviates: compound concentration: 1 ug/ml.

`NCCc1c[nH]c2c(OCc3ccccc3)cccc12` [7-Benzyloxytryptamine]: under setting [1], the cell viability is 102%. As for `CC(C)[C@@]1(NC(=O)[C@@H]2C[C@@H]3c4cccc5[nH]cc(c45)C[C@H]3N(C)C2)O[C@@]2(O)[C@@H]3CCCN3C(=O)[C@H](Cc3ccccc3)N2C1=O` [Dihydroergocristine], the cell viability (compound concentration: 3 uM) stood at 111%. Same read-out and setting: next, `CN1CCC(c2c[nH]c3ccc(O)cc23)CC1`: 88%. For the compound `O=C1C=C2C=C[C@@H]3C[C@@]2(O1)[C@H]1CCCCN31` [Securinine], under setting [1], the cell viability is 94.3%.

For `O=C1C=C2C=C[C@@H]3C[C@@]2(O1)[C@H]1CCCCN31`, the cell viability (compound concentration: 3 uM) came to 109%. The same measure, in the same setting: next, `CN1CCC(c2ccc(F)cc2)C(COc2ccc3c(c2)OCO3)C1` (centres undefined): 97.4%. The same measure, in the same setting: next, `Oc1noc2c1CCNC2`: 110%; `CCN[C@@H](C)Cc1cccc(C(F)(F)F)c1` [Dexfenfluramine hydrochloride]: 111%. As for `CCCC(C)C1(CC)C(=O)NC(=S)NC1=O` (centres undefined), the cell viability (compound concentration: 3 uM) amounted to 108%. On the same count and under the same terms, for `COc1cc([C@@H]2c3cc4c(cc3[C@H](O)[C@H]3COC(=O)[C@@H]23)OCO4)cc(OC)c1OC` the value was 93.8%; for `C[C@]12CCC(=O)C[C@@H]1CC[C@@H]1[C@@H]2CC[C@@]2(C)[C@H]1CC[C@]2(C)O` [Mestanolone], 97%. Still for that read-out and setting: for `NC(=O)CN1CC(O)CC1=O` (centres undefined) [Oxiracetam] the value was 104%; for `C[N+](C)(C)CC#CCN1CCCC1=O` [Oxotremorine methiodide], 109%. Still for that read-out and setting: for `NC(=O)c1ccc(OCC(O)CN2CC=C(c3ccc(F)cc3)CC2)cc1` (centres undefined) the value was 128%; for `CC(C)=CC1C(C(=O)OCc2cccc(Oc3ccccc3)c2)C1(C)C` (centres undefined), 102%; for `Cc1ncc2n1-c1ccc(Cl)cc1C(c1ccccc1F)=NC2`, 90.5%. Turning to `COc1ccc(CNC(=O)/C=C/c2ccc3[nH]cc(CCN(C)C)c3c2)cc1`, the cell viability (compound concentration: 3 uM) stood at 101%. The same measure, in the same setting: for `C[CH2][Hg][S]c1ccccc1C(=O)[O-].[Na+]` [Thimerosal] the value was 31.5%; for `C[CH2][Hg][S]c1ccccc1C(=O)[O-].[Na+]`, 3.23 ± 0.81%.

Consider `NC(CCP(=O)(O)O)C(=O)O` (racemic) [(±)-2-Amino-4-phosphonobutyric acid], for which, for the setting “compound concentration: 3 uM”, the cell viability is 105%. Same read-out and setting: next, `C#C[C@]1(O)CC[C@H]2[C@@H]3CCC4=Cc5nc6nc7ccccc7n6cc5C[C@]4(C)[C@H]3CC[C@@]21C`: 111%; `NCCc1cc(O)c(O)cc1O`: 114%; `CCC(=O)O[C@@](Cc1ccccc1)(c1ccccc1)[C@@H](C)CN(C)C` [Levopropoxyphene napsylate]: 98.7%.

For the compound `CC(C)=CCC[C@]1(C)C=Cc2c(O)c3c(c(CC=C(C)C)c2O1)O[C@]12C(=C[C@@H]4C[C@H]1C(C)(C)O[C@@]2(C/C=C(/C)C(=O)O)C4=O)C3=O`, where the note is “compound concentration: 3 uM”, the cell viability was found to be 1.72%. On to `C=CCN(C1=NCCN1)c1c(Cl)cccc1Cl` [Alinidine], for which, under “compound concentration: 3 uM”, the cell viability was determined as 109%.

For the compound `O=C1C[C@@H]2OCC=C3CN4CC[C@]56c7ccccc7N1[C@H]5[C@H]2[C@H]3C[C@H]46` [Strychnine], the cell viability is 100% under setting [1] and 113% (compound concentration: 3 uM).

With `O=C1C[C@@H]2OCC=C3CN4CC[C@]56c7ccccc7N1[C@H]5[C@H]2[C@H]3C[C@H]46`, where the note is “compound concentration: 3 uM”, the cell viability amounted to 101 ± 5.4%.

As for `N#Cc1nn(-c2c(Cl)cc(C(F)(F)F)cc2Cl)c(N)c1[S+]([O-])C(F)(F)F` (centres undefined), the cell viability (compound concentration: 3 uM) stood at 107 ± 4.5%. Turning to `CC[C@@]1(O)C(=O)OCc2c1cc1n(c2=O)Cc2cc3ccccc3nc2-1`, the cell viability (compound concentration: 3 uM) was 4.97%. Still for that read-out and setting: for `CC[C@@]1(O)C(=O)OCc2c1cc1n(c2=O)Cc2cc3ccccc3nc2-1` [Camptothecine (S,+)] the value was 41.5%. Consider `CC[C@@]1(O)C(=O)OCc2c1cc1n(c2=O)Cc2cc3ccccc3nc2-1` [(S)-(+)-Camptothecin], for which, under “compound concentration: 3 uM”, the cell viability was 38.5%.

On to `CC[C@@]1(O)C(=O)OCc2c1cc1n(c2=O)Cc2cc3ccccc3nc2-1` [Camptothecin], for which the cell viability was determined as 26% under setting [1] and 22.5% (compound concentration: 3 uM). As for `COc1cccc(C2(O)CCCCC2CN(C)C)c1` (centres undefined), the cell viability (compound concentration: 3 uM) turned out to be 112%. On the same count and under the same terms, for `COc1cccc(C2(O)CCCCC2CN(C)C)c1` (centres undefined) [Tramadol hydrochloride] the value was 113%; for `COc1cccc(C2(O)CCCCC2CN(C)C)c1` (centres undefined) [Tramadol], 104 ± 2.6%.

Regarding `CC(CCc1ccccc1)NC(C)C(O)c1ccc(O)cc1` (centres undefined) [Nylidrin hydrochloride], the cell viability (compound concentration: 3 uM) was determined as 99.2%. Same read-out and setting: next, `CC(CCc1ccccc1)NC(C)C(O)c1ccc(O)cc1` (centres undefined): 103%. With `CC(CCc1ccccc1)NC(C)C(O)c1ccc(O)cc1` (centres undefined) [Nylidrin], the cell viability (compound concentration: 3 uM) is 88.2%.

For the compound `CC(=O)OC1CN2CCC1CC2` (centres undefined), under “compound concentration: 3 uM”, the cell viability was 108%. Same read-out and setting: for `Cc1c(C(=O)c2cccc3ccccc23)c2cccc3c2n1[C@H](CN1CCOCC1)CO3` [( R)-(+)-WIN 55,212-2 mesylate] the value was 117%; for `N=C(N)c1ccc(CS(=O)(=O)F)cc1` [4-Amidinophenylmethanesulfonyl fluoride hydrochloride], 99%; for `C[N+](C)(C)CCCCCCCCCC[N+](C)(C)C`, 105%. Still for that read-out and setting: for `C[N+](C)(C)CCCCCCCCCC[N+](C)(C)C` [Decamethonium bromide] the value was 102%. On the same count and under the same terms, for `C[N+](C)(C)CCCCCCCCCC[N+](C)(C)C` [Decamethonium dibromide] the value was 107%; for `C[N+](C)(C)CCCCCCCCCC[N+](C)(C)C` [Decamethonium], 114%; for `c1ccc2nc(N3CCNCC3)ccc2c1`, 97.6%. Turning to `c1ccc2nc(N3CCNCC3)ccc2c1` [Quipazine dimaleate salt], where the note is “compound concentration: 3 uM”, the cell viability is 106%.

As for `CC1C2Cc3ccc(O)cc3C1(C)CCN2CC1CC1` (single isomer, unassigned; (+)) [(+)-Cyclazocine], the cell viability (compound concentration: 3 uM) was 108%.

As to `CN1C[C@H](C(=O)N[C@]2(C)O[C@@]3(O)[C@@H]4CCCN4C(=O)[C@H](Cc4ccccc4)N3C2=O)C[C@@H]2c3cccc4[nH]cc(c34)C[C@H]21`, the cell viability (compound concentration: 3 uM) is 98%. As to `CN1C[C@H](C(=O)N[C@]2(C)O[C@@]3(O)[C@@H]4CCCN4C(=O)[C@H](Cc4ccccc4)N3C2=O)C[C@@H]2c3cccc4[nH]cc(c34)C[C@H]21` [Dihydroergotamine tartrate], the cell viability (compound concentration: 3 uM) stood at 101%. Same read-out and setting: next, `CN1C[C@H](C(=O)N[C@]2(C)O[C@@]3(O)[C@@H]4CCCN4C(=O)[C@H](Cc4ccccc4)N3C2=O)C[C@@H]2c3cccc4[nH]cc(c34)C[C@H]21` [Dihydroergotamine methanesulfonate]: 103%. For `CN1C[C@H](C(=O)N[C@]2(C)O[C@@]3(O)[C@@H]4CCCN4C(=O)[C@H](Cc4ccccc4)N3C2=O)C[C@@H]2c3cccc4[nH]cc(c34)C[C@H]21` [Dihydroergotamine mesylate], the cell viability under setting [1] was found to be 100%. As to `CN1C[C@H](C(=O)N[C@]2(C)O[C@@]3(O)[C@@H]4CCCN4C(=O)[C@H](Cc4ccccc4)N3C2=O)C[C@@H]2c3cccc4[nH]cc(c34)C[C@H]21` [Dihydroergotamine], for the setting “compound concentration: 3 uM”, the cell viability came out at 103%. `O=C1NCN(c2ccccc2)C12CCN(CC1COc3ccccc3O1)CC2` (centres undefined) [Spiroxatrine]: the cell viability (compound concentration: 3 uM) was determined as 110 ± 1.6%. The same measure, in the same setting: next, `C[N+]1(C)[C@@H]2CC[C@H]1C[C@@H](OC(=O)C(CO)c1ccccc1)C2` (some centres undefined) [Atropine methyl bromide]: 102%; `C[N+]1(C)[C@@H]2CC[C@H]1C[C@@H](OC(=O)C(CO)c1ccccc1)C2` (some centres undefined) [Atropine methyl nitrate]: 107%; `C[N+]1(C)[C@@H]2CC[C@H]1C[C@@H](OC(=O)C(CO)c1ccccc1)C2` (some centres undefined): 109%. Still for that read-out and setting: next, `C[N+]1(C)[C@@H]2CC[C@H]1C[C@@H](OC(=O)C(CO)c1ccccc1)C2` (some centres undefined) [Methylatropine nitrate]: 90.5%; `CC[C@@H](C)C(=O)O[C@H]1[C@H](O)[C@H]2[C@@H](CN3C[C@@H](C)CC[C@H]3[C@@]2(C)O)[C@@H]2C[C@]34O[C@]5(O)[C@@H](OC(=O)[C@](C)(O)[C@@H](C)O)CC[C@@]3(C)[C@@H]5[C@@H](OC(C)=O)[C@@H](OC(C)=O)[C@H]4[C@@]21O` (stereo in doubt): 96.9%. The same measure, in the same setting: next, `C[N+](C)(C)CC#CCOC(=O)Nc1cccc(Cl)c1`: 101%; `CN1C[C@@H](NS(=O)(=O)N(C)C)C[C@@H]2c3cccc4c3c(cn4C)C[C@H]21` [Mesulergine]: 106%; `CCC(C)C1O[C@]2(C=C[C@@H]1C)C[C@@H]1CC(C/C=C(\C)[C@@H](OC3C[C@H](OC)[C@@H](OC4C[C@H](OC)[C@@H](O)[C@H](C)O4)[C@H](C)O3)[C@@H](C)/C=C/C=C3\COC4[C@H](O)C(C)=CC(C(=O)O1)[C@]34O)O2` (some centres undefined) [Avermectin B1a]: 96.7%. In the case of `Oc1cccc2cccnc12`, the cell viability (compound concentration: 3 uM) was 112%. As to `COc1ccc(CCN)cc1OC` [Homoveratrylamine], the cell viability (compound concentration: 3 uM) amounted to 96.4%. The same measure, in the same setting: next, `CC1=C(O)C(=O)C=C2C1=CC=C1[C@@]2(C)CC[C@@]2(C)[C@@H]3C[C@](C)(C(=O)O)CC[C@]3(C)CC[C@]12C`: 3.56%; `OC1CCCCC1N1CCC(c2ccccc2)CC1` (racemic) [(±)-Vesamicol hydrochloride]: 111%; `CCCN1C[C@H](CSC)C[C@@H]2c3cccc4[nH]cc(c34)C[C@H]21` [Pergolide]: 117%. In the case of `CCCN1C[C@H](CSC)C[C@@H]2c3cccc4[nH]cc(c34)C[C@H]21` [Pergolide mesylate], the cell viability reads like this: under setting [1], 92%; (compound concentration: 3 uM) 96.1%. With `CCCN1C[C@H](CSC)C[C@@H]2c3cccc4[nH]cc(c34)C[C@H]21`, where the note is “compound concentration: 3 uM”, the cell viability is 100% and 98.6%. Same read-out and setting: next, `CCCN1C[C@H](CSC)C[C@@H]2c3cccc4[nH]cc(c34)C[C@H]21` [Pergolide methanesulfonate]: 106%; `CCCCc1ccc(C(=O)O)nc1` [Fusaric acid]: 109%.

`CCCCc1ccc(C(=O)O)nc1` [Fusaric acid ; 5-butylpicolinic acid]: the cell viability under setting [1] came to 103%. With `CN1CC[C@]23CCCC[C@H]2[C@H]1Cc1ccc(O)cc13`, for the setting “compound concentration: 3 uM”, the cell viability was 101%. On to `N.N.[Cl][Pt][Cl]` [Cisplatin], for which the cell viability (compound concentration: 3 uM) was determined as 98.1%. Still for that read-out and setting: next, `N.N.[Cl][Pt][Cl]`: 106 ± 8.1%. Regarding `C=C(C)[C@@H]1[C@H]2OC(=O)[C@@H]1[C@]1(O)C[C@H]3O[C@]34C(=O)O[C@H]2[C@]14C.CC(C)(O)[C@@H]1[C@H]2OC(=O)[C@@H]1[C@]1(O)C[C@H]3O[C@]34C(=O)O[C@H]2[C@]14C` [Picrotin - Picrotoxinin], the cell viability (compound concentration: 3 uM) came to 96.2%.
